Measured values taken from paper PMC4597091.

Biological target: T1, MmPepT1^ECD, extracellular domain of Mus musculus PepT1 (residues 391–580) (Mus musculus) (UniProt Q9JIP7)
T1 sequence: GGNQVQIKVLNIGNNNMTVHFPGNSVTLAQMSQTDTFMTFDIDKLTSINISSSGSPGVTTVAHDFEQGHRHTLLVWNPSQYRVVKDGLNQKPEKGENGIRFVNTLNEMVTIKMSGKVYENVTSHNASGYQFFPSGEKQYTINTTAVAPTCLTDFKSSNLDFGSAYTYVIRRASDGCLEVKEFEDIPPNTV
Test: SPR; PepT1^ECD or PepT2^ECD immobilised on a CM5 chip by amine coupling (1,000 RU); ligand 7.81-1000 μM injected; 20°C; 25 mM MES pH 6.5, 100 mM NaCl, 10 mM CaCl2, 0.005% Tween 20, 2 mg/ml dextran, 1 mg/ml salmon sperm DNA; global 1:1 model; both purified

chymotrypsin (enzyme)
binding: no binding (tested: 1000 μM)

No constants are given. Whether binding was seen depends on the method and setting.
